{
  "source": "paper PMC5996148",
  "test_in_all_cases": "protein microarray (ProtoArray v5.0), streptavidin-Alexa Fluor 647",
  "conditions_in_all_cases": "3'-biotin; 20 mM Tris (pH 7.5), 5 mM MgCl2, 100 mM KCl, 0.1% Tween-20, A/T-rich and random oligonucleotide blockers; temperature not stated; high values mean tight binding",
  "key": {"ZNF718 (human)": {"test_system": "ZNF718 (human)"}, "ZNF765 (human)": {"test_system": "ZNF765 (human)"}, "ZRF1": {"target": "T1, ZRF1 (UniProt Q99543)", "T1 sequence": "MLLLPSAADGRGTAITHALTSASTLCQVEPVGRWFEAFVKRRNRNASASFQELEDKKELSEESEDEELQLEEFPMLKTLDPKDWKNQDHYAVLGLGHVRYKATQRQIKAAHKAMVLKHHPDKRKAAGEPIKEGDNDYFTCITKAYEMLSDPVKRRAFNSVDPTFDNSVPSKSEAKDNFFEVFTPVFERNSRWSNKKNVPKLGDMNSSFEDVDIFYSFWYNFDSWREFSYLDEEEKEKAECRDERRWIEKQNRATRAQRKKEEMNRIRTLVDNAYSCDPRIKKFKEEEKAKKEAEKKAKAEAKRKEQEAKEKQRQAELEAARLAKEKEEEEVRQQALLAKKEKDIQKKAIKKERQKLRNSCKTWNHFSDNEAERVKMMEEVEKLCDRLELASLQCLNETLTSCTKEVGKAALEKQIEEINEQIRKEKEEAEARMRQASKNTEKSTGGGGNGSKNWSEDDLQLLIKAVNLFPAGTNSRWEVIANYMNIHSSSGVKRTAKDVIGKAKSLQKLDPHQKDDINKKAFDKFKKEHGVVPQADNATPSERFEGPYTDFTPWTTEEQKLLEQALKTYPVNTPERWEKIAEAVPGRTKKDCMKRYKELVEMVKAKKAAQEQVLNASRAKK"}, "ZSCAN18 (human)": {"test_system": "ZSCAN18 (human)"}, "ZWINT": {"target": "T2, ZWINT (UniProt O95229)", "T2 sequence": "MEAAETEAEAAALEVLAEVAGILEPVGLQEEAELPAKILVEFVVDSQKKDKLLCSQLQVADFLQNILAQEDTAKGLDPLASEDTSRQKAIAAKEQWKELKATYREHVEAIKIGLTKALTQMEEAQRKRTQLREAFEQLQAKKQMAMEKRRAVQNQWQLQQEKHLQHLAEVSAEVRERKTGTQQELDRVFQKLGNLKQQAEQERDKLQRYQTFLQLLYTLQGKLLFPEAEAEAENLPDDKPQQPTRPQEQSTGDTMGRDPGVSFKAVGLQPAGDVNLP"}, "[1]": {"test_system": "Zinc finger BED domain-containing protein 1 (human)"}, "[2]": {"test_system": "Zinc finger CCCH domain-containing protein 7A (human)"}, "[3]": {"test_system": "Zinc finger and SCAN domain-containing protein 2 (human)"}, "[4]": {"test_system": "Zinc finger protein 655 (human)"}, "[5]": {"test_system": "Zinc finger protein ZXDC (human)"}},
  "note": "The list shows a part of the results. For some of these results: The source does not settle which construct or isoform was used.",
  "data": [
    {"sequence": "GGGGACAGGGGTATGGGGAGGGG [G4-3 biotinylated (CtG)]", "values": [
      {"measurement": "binding signal", "setting": "ZNF718 (human)", "value": -0.326, "unit": "z-score"},
      {"measurement": "binding signal", "setting": "ZNF765 (human)", "value": -0.324, "unit": "z-score"},
      {"measurement": "binding signal", "setting": "ZRF1", "value": -0.279, "unit": "z-score"},
      {"measurement": "binding signal", "setting": "ZSCAN18 (human)", "value": -0.338, "unit": "z-score"},
      {"measurement": "binding signal", "setting": "ZWINT", "value": -0.338, "unit": "z-score"},
      {"measurement": "binding signal", "setting": "[1]", "value": -0.341, "unit": "z-score"},
      {"measurement": "binding signal", "setting": "[2]", "value": -0.314, "unit": "z-score"},
      {"measurement": "binding signal", "setting": "[3]", "value": -0.327, "unit": "z-score"},
      {"measurement": "binding signal", "setting": "[4]", "value": -0.32, "unit": "z-score"},
      {"measurement": "binding signal", "setting": "[5]", "value": -0.312, "unit": "z-score"}
    ]}
  ]
}
